Test results published in the supplement of paper PMC10849652.
This is one part of the list. Residues, ends and D or L forms follow the SMILES beside them. *: point of attachment. Cbz = O=C(OCc1ccccc1)*

Sequences of proteins named here, by UniProt entry; tags and fusion partners are left off. A change or cut given only in a name is not applied to a line headed by its entry.
UniProt Q9NYP3: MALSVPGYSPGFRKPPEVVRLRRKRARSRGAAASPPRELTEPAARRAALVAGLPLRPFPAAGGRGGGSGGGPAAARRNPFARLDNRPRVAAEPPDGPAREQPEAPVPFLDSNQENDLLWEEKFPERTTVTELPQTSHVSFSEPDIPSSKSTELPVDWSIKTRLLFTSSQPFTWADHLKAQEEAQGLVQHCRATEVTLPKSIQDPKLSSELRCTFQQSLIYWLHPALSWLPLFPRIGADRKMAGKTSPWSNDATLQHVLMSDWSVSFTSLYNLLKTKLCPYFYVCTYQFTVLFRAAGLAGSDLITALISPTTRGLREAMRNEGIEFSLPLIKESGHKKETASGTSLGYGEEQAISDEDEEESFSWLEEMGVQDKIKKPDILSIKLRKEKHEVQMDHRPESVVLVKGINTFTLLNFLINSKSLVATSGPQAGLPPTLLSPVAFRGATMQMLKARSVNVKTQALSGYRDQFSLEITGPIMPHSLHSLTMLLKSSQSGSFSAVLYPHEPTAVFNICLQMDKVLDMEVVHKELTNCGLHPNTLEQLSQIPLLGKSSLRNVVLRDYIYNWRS
UniProt P50570: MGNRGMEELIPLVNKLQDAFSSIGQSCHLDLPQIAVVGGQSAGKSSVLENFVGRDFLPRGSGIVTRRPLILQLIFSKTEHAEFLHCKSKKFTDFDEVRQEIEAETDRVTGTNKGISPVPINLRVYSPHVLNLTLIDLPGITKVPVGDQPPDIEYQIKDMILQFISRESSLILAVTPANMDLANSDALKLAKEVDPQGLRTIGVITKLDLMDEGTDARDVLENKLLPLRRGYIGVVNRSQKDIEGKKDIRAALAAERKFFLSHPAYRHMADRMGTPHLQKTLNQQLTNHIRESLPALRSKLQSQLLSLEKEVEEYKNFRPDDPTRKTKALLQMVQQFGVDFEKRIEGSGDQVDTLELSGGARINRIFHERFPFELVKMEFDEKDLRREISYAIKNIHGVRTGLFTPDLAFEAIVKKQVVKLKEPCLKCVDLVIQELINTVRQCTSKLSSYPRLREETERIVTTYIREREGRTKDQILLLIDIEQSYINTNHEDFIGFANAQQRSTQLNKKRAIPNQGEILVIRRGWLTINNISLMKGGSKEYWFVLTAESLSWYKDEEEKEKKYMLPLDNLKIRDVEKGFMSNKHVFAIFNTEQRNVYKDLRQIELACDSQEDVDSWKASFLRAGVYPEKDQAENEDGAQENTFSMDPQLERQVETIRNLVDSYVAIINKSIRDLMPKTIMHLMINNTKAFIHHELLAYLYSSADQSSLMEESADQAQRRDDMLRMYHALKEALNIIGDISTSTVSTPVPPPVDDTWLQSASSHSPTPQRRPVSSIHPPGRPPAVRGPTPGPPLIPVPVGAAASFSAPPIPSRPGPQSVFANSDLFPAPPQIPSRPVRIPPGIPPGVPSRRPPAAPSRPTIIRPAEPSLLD
UniProt Q96DC8: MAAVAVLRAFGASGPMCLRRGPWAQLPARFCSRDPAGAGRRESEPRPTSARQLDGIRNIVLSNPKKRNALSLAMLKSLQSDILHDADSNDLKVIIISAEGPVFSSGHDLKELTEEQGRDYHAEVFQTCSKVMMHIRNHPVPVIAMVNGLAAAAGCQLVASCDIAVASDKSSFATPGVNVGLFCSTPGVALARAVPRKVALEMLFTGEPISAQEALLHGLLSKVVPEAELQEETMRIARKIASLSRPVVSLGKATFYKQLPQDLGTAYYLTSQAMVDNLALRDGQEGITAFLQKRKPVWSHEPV
UniProt Q6NUT2: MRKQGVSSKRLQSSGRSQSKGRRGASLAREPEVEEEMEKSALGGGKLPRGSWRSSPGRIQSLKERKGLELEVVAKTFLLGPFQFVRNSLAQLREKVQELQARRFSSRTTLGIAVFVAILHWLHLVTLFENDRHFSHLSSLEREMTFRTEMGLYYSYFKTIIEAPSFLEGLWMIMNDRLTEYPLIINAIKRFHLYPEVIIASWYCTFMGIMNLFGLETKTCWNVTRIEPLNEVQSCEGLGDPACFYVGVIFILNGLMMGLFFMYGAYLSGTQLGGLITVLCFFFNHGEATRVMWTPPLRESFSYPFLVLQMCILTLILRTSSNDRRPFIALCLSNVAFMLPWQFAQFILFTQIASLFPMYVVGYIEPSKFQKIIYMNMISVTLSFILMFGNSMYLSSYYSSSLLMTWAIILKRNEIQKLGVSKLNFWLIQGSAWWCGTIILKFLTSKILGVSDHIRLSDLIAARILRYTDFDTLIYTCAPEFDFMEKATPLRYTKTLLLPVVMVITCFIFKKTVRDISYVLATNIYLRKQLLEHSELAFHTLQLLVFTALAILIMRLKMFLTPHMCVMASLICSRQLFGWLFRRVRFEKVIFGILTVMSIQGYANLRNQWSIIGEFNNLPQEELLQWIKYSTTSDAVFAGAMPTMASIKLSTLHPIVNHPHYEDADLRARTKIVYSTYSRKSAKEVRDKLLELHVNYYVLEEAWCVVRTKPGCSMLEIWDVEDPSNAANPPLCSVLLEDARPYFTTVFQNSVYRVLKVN
UniProt Q96BY6: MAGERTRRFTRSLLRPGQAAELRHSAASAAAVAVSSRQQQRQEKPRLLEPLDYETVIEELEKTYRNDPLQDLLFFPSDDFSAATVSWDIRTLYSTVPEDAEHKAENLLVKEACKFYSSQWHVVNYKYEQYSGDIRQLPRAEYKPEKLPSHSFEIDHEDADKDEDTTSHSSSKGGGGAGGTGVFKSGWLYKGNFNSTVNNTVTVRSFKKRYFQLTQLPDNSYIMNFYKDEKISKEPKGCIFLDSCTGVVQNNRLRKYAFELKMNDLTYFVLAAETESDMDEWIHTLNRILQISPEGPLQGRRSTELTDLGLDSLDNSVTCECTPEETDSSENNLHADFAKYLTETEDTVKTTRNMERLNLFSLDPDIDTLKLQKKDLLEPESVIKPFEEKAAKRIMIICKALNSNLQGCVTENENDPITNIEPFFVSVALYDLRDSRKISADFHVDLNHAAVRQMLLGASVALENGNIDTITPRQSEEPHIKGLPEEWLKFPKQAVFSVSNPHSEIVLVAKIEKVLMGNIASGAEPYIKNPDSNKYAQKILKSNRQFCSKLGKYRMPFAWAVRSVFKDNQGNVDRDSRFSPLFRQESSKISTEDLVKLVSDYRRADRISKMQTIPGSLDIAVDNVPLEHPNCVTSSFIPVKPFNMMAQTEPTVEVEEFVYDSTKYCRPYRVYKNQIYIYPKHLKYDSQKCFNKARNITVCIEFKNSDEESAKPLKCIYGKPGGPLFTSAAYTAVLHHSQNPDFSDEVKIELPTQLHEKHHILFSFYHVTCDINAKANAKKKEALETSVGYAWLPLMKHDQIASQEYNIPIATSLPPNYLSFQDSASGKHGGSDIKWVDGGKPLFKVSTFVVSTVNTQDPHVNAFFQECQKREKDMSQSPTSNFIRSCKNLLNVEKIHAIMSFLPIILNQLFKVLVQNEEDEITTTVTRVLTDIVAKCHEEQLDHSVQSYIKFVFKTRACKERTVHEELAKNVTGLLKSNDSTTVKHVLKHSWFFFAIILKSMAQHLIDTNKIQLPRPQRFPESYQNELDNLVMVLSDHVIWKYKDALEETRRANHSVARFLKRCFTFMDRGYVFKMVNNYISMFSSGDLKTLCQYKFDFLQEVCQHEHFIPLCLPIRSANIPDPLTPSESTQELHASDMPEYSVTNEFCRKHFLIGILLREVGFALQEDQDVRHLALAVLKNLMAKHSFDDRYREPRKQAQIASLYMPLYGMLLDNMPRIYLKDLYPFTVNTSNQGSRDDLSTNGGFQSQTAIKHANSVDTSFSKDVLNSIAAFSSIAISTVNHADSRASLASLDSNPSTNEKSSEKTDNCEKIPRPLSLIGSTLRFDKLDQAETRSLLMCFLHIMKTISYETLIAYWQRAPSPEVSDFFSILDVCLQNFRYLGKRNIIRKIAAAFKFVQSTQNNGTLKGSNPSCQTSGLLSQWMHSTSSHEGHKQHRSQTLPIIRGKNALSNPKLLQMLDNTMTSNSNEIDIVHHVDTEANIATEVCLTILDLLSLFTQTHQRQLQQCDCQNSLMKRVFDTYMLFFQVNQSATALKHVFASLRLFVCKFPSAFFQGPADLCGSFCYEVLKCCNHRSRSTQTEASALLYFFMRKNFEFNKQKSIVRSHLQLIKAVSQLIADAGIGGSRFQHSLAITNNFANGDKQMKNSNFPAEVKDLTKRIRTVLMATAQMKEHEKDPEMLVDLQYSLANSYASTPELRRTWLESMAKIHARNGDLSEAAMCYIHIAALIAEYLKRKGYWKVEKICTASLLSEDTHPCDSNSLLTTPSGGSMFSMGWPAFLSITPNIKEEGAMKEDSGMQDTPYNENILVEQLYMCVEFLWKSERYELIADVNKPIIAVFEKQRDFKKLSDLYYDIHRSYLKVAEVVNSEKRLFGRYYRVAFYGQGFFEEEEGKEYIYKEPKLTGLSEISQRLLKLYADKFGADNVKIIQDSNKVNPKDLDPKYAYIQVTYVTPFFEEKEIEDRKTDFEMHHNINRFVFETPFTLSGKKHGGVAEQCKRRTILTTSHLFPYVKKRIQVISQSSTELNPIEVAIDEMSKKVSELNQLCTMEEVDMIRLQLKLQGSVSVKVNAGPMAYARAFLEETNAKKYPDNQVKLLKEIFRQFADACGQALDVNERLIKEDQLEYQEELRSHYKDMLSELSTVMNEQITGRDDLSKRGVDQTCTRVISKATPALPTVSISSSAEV
UniProt Q6P2E9: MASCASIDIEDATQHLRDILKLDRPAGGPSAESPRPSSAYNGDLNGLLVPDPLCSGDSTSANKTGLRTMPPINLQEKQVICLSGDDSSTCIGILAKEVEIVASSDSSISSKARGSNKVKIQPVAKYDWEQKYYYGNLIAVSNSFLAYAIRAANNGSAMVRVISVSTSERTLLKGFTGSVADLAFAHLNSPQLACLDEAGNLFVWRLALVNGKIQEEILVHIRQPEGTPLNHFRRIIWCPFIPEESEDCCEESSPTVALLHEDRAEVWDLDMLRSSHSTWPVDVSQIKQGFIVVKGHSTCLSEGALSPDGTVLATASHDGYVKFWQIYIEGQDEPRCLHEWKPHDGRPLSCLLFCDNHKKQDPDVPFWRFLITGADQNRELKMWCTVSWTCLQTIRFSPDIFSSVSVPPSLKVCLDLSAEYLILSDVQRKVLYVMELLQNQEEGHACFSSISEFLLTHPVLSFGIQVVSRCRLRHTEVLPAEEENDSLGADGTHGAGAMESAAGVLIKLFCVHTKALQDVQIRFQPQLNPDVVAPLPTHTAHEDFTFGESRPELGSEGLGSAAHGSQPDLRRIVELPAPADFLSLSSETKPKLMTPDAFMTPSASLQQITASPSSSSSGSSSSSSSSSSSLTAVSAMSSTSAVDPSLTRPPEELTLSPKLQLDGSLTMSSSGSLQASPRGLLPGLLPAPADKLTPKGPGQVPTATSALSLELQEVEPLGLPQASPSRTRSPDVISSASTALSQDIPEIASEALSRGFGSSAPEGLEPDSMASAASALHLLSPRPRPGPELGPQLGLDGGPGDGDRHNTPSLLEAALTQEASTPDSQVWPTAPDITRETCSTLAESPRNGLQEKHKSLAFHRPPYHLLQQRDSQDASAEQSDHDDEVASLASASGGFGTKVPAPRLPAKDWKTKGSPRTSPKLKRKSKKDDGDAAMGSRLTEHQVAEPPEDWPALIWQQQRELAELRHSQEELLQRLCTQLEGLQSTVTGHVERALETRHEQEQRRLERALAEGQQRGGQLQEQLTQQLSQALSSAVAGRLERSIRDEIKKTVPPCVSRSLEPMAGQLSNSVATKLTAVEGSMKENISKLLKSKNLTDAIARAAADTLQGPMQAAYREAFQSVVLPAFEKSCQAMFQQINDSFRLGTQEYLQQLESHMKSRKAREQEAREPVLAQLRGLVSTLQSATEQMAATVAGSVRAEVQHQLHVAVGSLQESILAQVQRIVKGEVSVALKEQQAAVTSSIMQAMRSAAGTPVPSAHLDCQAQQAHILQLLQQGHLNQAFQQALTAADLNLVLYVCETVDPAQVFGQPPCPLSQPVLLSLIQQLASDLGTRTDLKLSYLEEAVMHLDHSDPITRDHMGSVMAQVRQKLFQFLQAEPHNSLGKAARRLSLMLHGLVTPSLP
UniProt P63172, whole entry, looked up: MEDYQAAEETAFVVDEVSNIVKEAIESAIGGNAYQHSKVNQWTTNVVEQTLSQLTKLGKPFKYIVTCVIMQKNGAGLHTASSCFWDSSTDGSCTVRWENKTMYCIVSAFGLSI
UniProt Q96FX2: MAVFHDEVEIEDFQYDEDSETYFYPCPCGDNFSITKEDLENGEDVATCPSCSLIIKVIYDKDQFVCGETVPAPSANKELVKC
UniProt Q56P03: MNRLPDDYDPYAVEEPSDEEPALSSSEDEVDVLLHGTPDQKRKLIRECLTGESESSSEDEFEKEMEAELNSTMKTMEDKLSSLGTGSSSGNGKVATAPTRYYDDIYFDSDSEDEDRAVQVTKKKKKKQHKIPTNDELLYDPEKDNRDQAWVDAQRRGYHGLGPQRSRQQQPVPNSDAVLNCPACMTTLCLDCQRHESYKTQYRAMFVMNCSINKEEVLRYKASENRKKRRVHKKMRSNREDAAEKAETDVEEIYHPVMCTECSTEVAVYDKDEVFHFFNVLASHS

How the values were obtained:
Assay in all cases: log2 fold change, soluble protein after heating vs DMSO (PISA); higher = thermal stabilisation; K562 cells, 10 uM, 30 min; active = over 0.2 and 3.5 SD of the protein, either way, in both replicates (recomputed)
IRAK-1-4 Inhibitor I = compound: C1COCCN1CCN2C3=CC=CC=C3N=C2NC(=O)C4=CC(=CC=C4)[N+](=O)[O-] [IRAK-1-4 Inhibitor I]
In short: (§1)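 K562 cells (2×10^6 cells/mL) were treated with 10 μM compound for 30 min, and aliquots were heated for 3 min over 48°C-58°C. Pooled aliquots were extracted in PBS with 0.5% NP-40 at 4°C, and the supernatant after 21,000xg for 90 min was measured by TMTpro 16plex LC-MS/MS with channel sums equalised. Reported thermal stability, relative to control samples and from duplicates, is a log2 fold change.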

[1] = compound: CC(=O)c1cnc2ccc(-c3cc(Cl)c(O)c(Cl)c3)nc2c1N[C@H]1CC[C@H](CN(C)C)CC1
In short: as §1

ralimetinib = compound: CC(C)(C)Cn1c(N)nc2ccc(-c3[nH]c(C(C)(C)C)nc3-c3ccc(F)cc3)nc21 [ralimetinib]
In short: as §1

[2] = compound: CC(C)(O)CC(=O)NCCn1ccc2ncnc(Nc3ccc(Oc4cccc(C(F)(F)F)c4)c(Cl)c3)c21
In short: as §1

[3] = compound: CC(C)C[C@@H](C=O)NC(=O)[C@H](CC(C)C)NC(=O)[C@H](CC(C)C)NC(=O)OCc1ccccc1
In short: as §1

pinometostat = compound: CC(C)N(C[C@H]1O[C@@H](n2cnc3c(N)ncnc32)[C@H](O)[C@@H]1O)[C@H]1C[C@@H](CCc2nc3cc(C(C)(C)C)ccc3[nH]2)C1 [pinometostat]
In short: as §1

[4] = compound: CC1=C(C(CC(=O)N1)C2=CC=C(C=C2)C(F)(F)F)C(=O)NC3=C(C=C4C(=C3)C=NN4)F
In short: as §1

[5] = compound: CC1=C(C2=C(C=C1)C(=O)C3=CC=CC=C3N2CCCN)C
In short: as §1

[6] = compound: CC1=C(C=C(C=C1)NC(=O)C2=CC(=CC=C2)C(C)(C)C#N)NC3=CC4=C(C=C3)N=CN(C4=O)C
In short: as §1

[7] = compound: CC1=C(C=C(C=C1)NC(=O)C2=CC(=CC=C2)N(C)C)NC(=O)C3=CC=C(C=C3)O
In short: as §1

[8] = compound: CC1=NC(=CC=C1)C2=C(N=C(N2)C(C)(C)C)C3=CC4=NC=CN=C4C=C3
In short: as §1

Nexturastat A = compound: CCCCN(Cc1ccc(C(=O)NO)cc1)C(=O)Nc1ccccc1 [Nexturastat A]
In short: as §1

vemurafenib = compound: CCCS(=O)(=O)Nc1ccc(F)c(C(=O)c2c[nH]c3ncc(-c4ccc(Cl)cc4)cc23)c1F [vemurafenib]
In short: as §1

ibrutinib = compound: C=CC(=O)N1CCC[C@@H](n2nc(-c3ccc(Oc4ccccc4)cc3)c3c(N)ncnc32)C1 [ibrutinib]
In short: as §1

[9] = compound: CC(C)C1=C2N=C(C=C(N2N=C1)NCC3=CC=CC=C3)NCCCCCCN
In short: as §1

[10] = compound: CCCc1cc(C)[nH]c(=O)c1CNC(=O)c1cc(-c2ccnc(N3CCN(C)CC3)c2)cc2c1cnn2C(C)C
In short: as §1

givinostat = compound: CCN(CC)Cc1ccc2cc(COC(=O)Nc3ccc(C(=O)NO)cc3)ccc2c1 [givinostat]
In short: as §1

barasertib = compound: CCN(CCCOc1ccc2c(Nc3cc(CC(=O)Nc4cccc(F)c4)[nH]n3)ncnc2c1)CCOP(=O)(O)O [barasertib]
In short: as §1

[11] = compound: CC1=CC=C(C=C1)SC2=C3C=C(SC3=CN=C2)C(=O)N
In short: as §1

[12] = compound: CCCS(=O)(=O)Nc1ccc(F)c(C(=O)c2c[nH]c3ncc(Cl)cc23)c1F
In short: as §1

Target | log2 fold change (IRAK-1-4 Inhibitor I) | log2 fold change [1] | log2 fold change (ralimetinib) | log2 fold change [2] | log2 fold change [3] | log2 fold change (pinometostat) | log2 fold change [4] | log2 fold change [5] | log2 fold change [6] | log2 fold change [7] | log2 fold change [8] | log2 fold change (Nexturastat A) | log2 fold change (vemurafenib) | log2 fold change (ibrutinib) | log2 fold change [9] | log2 fold change [10] | log2 fold change (givinostat) | log2 fold change (barasertib) | log2 fold change [11] | log2 fold change [12]
DONSON (UniProt Q9NYP3) | inactive: -0.012 | inactive: 0.057 | inactive: -0.147 | inactive: 0.228 | inactive: 0.161 | inactive: -0.065 | inactive: 0.096 | inactive: -0.083 | inactive: 0.043 | inactive: 0.096 | inactive: -0.312 | inactive: 0.316 | inactive: -0.12 |  |  |  |  |  |  | 
DNM2 isoform 4 (UniProt P50570) | inactive: 0.019 |  | inactive: 0.005 | inactive: -0.101 | inactive: -0.04 | inactive: -0.063 |  |  | inactive: 0.062 | inactive: -0.001 | inactive: 0.23 | inactive: 0.089 |  | inactive: -0.074 | inactive: -0.047 | inactive: -0.032 | inactive: 0.159 | inactive: 0.013 |  | 
ECHDC3 (UniProt Q96DC8) | inactive: 0.049 |  | inactive: 0.041 | inactive: -0.137 | inactive: -0.042 | inactive: -0.037 | inactive: -0.23 | inactive: 0.245 | inactive: 0.121 | inactive: -0.074 | inactive: 0.064 | inactive: -0.001 | inactive: -0.22 | inactive: -0.126 | inactive: 0.195 | inactive: -0.185 | inactive: 0.029 | inactive: -0.014 |  | 
DPY19L2 (UniProt Q6NUT2) | inactive: -0.002 | inactive: -0.141 |  |  |  | inactive: 0.096 | inactive: 0.079 | inactive: 0.111 |  |  | inactive: 0.031 |  | inactive: -0.124 | inactive: -0.103 |  | inactive: 0.046 |  | inactive: 0.045 |  | 
DPCD (UniProt Q9BVM2) | inactive: -0.143 | inactive: -0.064 |  |  |  | inactive: 0.14 |  |  |  |  | inactive: -0.044 |  | inactive: 0.099 |  |  |  |  |  |  | 
DOCK10 (UniProt Q96BY6) | inactive: 0.033 |  | inactive: -0.001 |  | inactive: -0.036 | inactive: 0.061 | inactive: 0.108 | inactive: -0.151 |  | inactive: 0.432 | inactive: -0.011 |  | inactive: 0.107 |  |  | inactive: -0.563 |  |  |  | 
EDC4 (UniProt Q6P2E9) | inactive: -0.041 | active: -0.387 | inactive: 0.019 | inactive: 0.007 | inactive: 0.022 | inactive: 0.05 |  | inactive: -0.032 | inactive: 0.004 | inactive: -0.048 | inactive: -0.035 | inactive: 0.022 | inactive: 0.035 | inactive: -0.001 | inactive: -0.181 | inactive: 0.029 | inactive: 0.031 | inactive: 0.057 | inactive: -0.022 | inactive: 0.03
DOP1B (UniProt Q9Y3R5) | inactive: 0.053 |  | inactive: -0.071 | inactive: 0.097 | inactive: -0.023 | inactive: -0.091 | inactive: -0.049 | inactive: 0.085 | inactive: 0.021 | inactive: 0.026 | inactive: 0.118 | inactive: -0.095 | inactive: -0.139 | inactive: -0.045 |  | inactive: -0.263 |  | inactive: -0.165 |  | 
DYNLT1 (UniProt P63172) | inactive: 0.071 | inactive: 0.055 | inactive: 0.104 |  | inactive: 0.036 | inactive: -0.023 | inactive: -0.099 | inactive: -0.045 | inactive: 0.089 | inactive: -0.149 | inactive: 0.085 |  | inactive: 0.007 | inactive: 0.044 | inactive: 0.049 | inactive: 0.147 | inactive: 0.004 | inactive: -0.015 | inactive: 0.023 | inactive: 0.06
DTD2 (UniProt Q96FN9) | inactive: -0.055 | inactive: 0.013 |  | inactive: 0.247 |  | inactive: 0.048 | inactive: 0.059 | inactive: -0.018 | inactive: 0.005 |  | inactive: -0.005 | inactive: 0.081 | inactive: -0.067 |  | inactive: 0.134 |  | inactive: -0.005 |  | inactive: -0.023 | inactive: -0.169
DPH3 (UniProt Q96FX2) | inactive: 0 | inactive: -0.077 |  | inactive: 0 |  | inactive: -0.051 | inactive: -0.022 | inactive: 0.076 | inactive: -0.005 |  | inactive: -0.025 | inactive: 0.158 | inactive: -0.042 | inactive: -0.34 | inactive: 0.097 | inactive: 0.001 | inactive: 0.046 | inactive: 0.068 | inactive: 0.219 | inactive: 0
EAPP (UniProt Q56P03) | inactive: -0.046 | inactive: -0.054 | inactive: -0.079 |  | inactive: 0.021 | inactive: -0.037 | inactive: 0.023 | inactive: 0.144 | inactive: 0.015 | inactive: 0.041 | inactive: 0.083 |  | inactive: 0.182 |  | inactive: 0.017 | inactive: 0.13 | inactive: 0.074 |  | inactive: 0.096 | inactive: -0.018
